For data set [1], the target named is SRSF1 (Homo sapiens) (UniProt Q07955). The data set can be described thus: SPR. To be noted: 100 nM RNA; 3' biotin; SPR: 25 °C, 1:10 mixture of binding buffer (10 mM Tris-HCl pH 7.5, 150 mM KCl) and HBS-EP (10 mM HEPES pH 7.4, 150 mM NaCl, 3 mM EDTA, 0.005% P20), protein immobilized; recombinant protein; protein details: N-terminal His-tag (pET28a); label: biotin.

In data set [2] the target is EFHD2 (Homo sapiens) (UniProt Q96C19). As to the kind of experiment: SPR. To be noted: 100 nM RNA; 3' biotin; SPR: 25 °C, 1:10 mixture of binding buffer (10 mM Tris-HCl pH 7.5, 150 mM KCl) and HBS-EP (10 mM HEPES pH 7.4, 150 mM NaCl, 3 mM EDTA, 0.005% P20), protein immobilized; recombinant protein; protein details: N-terminal His-tag (pET28a); label: biotin.
For data set [3], the target named is RPS5 (Homo sapiens) (UniProt P46782). As to the kind of experiment: pull-down. To be noted: 3' biotin; pull-down: RNA on streptavidin beads blocked in 10 mM Tris-HCl pH 7.5, 100 mM KCl, 0.1 mM EDTA, 1 mM DTT, 0.01% Triton X-100, BSA, tRNA; extract 1 h at 30 °C; protein in an extract; label: biotin.
Data set [4] concerns the target hnRNPA3 (Homo sapiens) (UniProt P51991). The data set can be described thus: pull-down. Particulars: 3' biotin; pull-down: RNA on streptavidin beads blocked in 10 mM Tris-HCl pH 7.5, 100 mM KCl, 0.1 mM EDTA, 1 mM DTT, 0.01% Triton X-100, BSA, tRNA; extract 1 h at 30 °C; protein in an extract; label: biotin.
Data set [5] addresses hnRNPU (Homo sapiens) (UniProt Q00839). The data set can be described thus: pull-down. To be noted: 3' biotin; pull-down: RNA on streptavidin beads blocked in 10 mM Tris-HCl pH 7.5, 100 mM KCl, 0.1 mM EDTA, 1 mM DTT, 0.01% Triton X-100, BSA, tRNA; extract 1 h at 30 °C; protein in an extract; label: biotin.
The target of data set [6] is U2AF65 (native) (Homo sapiens) (UniProt P26368). The data set can be described thus: pull-down. Particulars: 3' biotin; pull-down: RNA on streptavidin beads blocked in 10 mM Tris-HCl pH 7.5, 100 mM KCl, 0.1 mM EDTA, 1 mM DTT, 0.01% Triton X-100, BSA, tRNA; extract 1 h at 30 °C; protein in an extract; label: biotin.
Data set [7] concerns Actin (Homo sapiens). As to the kind of experiment: pull-down. Particulars: 3' biotin; pull-down: RNA on streptavidin beads blocked in 10 mM Tris-HCl pH 7.5, 100 mM KCl, 0.1 mM EDTA, 1 mM DTT, 0.01% Triton X-100, BSA, tRNA; extract 1 h at 30 °C; protein in an extract; label: biotin.
The target of data set [8] is NAD-dependent malic enzyme, mitochondrial (ME2) (Homo sapiens) (UniProt P23368). As to the kind of experiment: pull-down. To be noted: 3' biotin; pull-down: RNA on streptavidin beads blocked in 10 mM Tris-HCl pH 7.5, 100 mM KCl, 0.1 mM EDTA, 1 mM DTT, 0.01% Triton X-100, BSA, tRNA; extract 1 h at 30 °C; protein in an extract; label: biotin.

For some assays here: Where cells or extracts were used, other partners may take part. For some assays here: Negatives hold for the conditions tested. For some assays here: At least one verdict was read from the data and is not stated in words by the source. For some assays here: Construct, isoform or probe ends are uncertain for at least one entry. For some assays here: Weaker means in comparison with the reference protein, sequence or condition of that experiment.

The results in this text go back to PMC4041461.

On to AACGAGAGAGAGAGAGAGAGAGAGAGA [MMP16 mut], for which the binding result was “binds more weakly” in data set [1]; “binds more weakly” in data set [2]; “no binding” in data set [3]; “binds” in data set [4]; “no binding” in data set [5]; “no binding” in data set [6]. For the same sequence, the binding result in data set [7] is on record as “binds”; in data set [8] it was “no binding”.
